Test results taken from publication PMC7949154, “Heat shock transcription factor 1 is SUMOylated in the activated trimeric state” (The Journal of Biological Chemistry, 2020).
For part of these data: Protein sequences can lack the tags named with them. For part of these data: Construct, isoform or probe ends are uncertain for at least one entry.

Tests used:
[1] = molecular target: Hsf1-S303E,S307E (EE), non-SUMOylated (human) (UniProt Q00613); assay: fluorescence polarization equilibrium titration; conditions: trimer, no SUMOylation, Kd shown only in figure; 25 mM Hepes pH 7.6, 150 mM KCl, 5 mM MgCl2, 10% glycerol, 1 mM DTT, 25 C; 5 nM DNA, 0.16-166.67 nM Hsf1 trimer (titration); 25 nM DNA, 0.3 uM trimer (SUMOylation on DNA); recombinant protein; residues 1-529; label: 5' Alexa488 on sense strand
[2] = molecular target: Hsf1-S303E,S307E (EE), non-SUMOylated (human) (UniProt Q00613); assay: fluorescence polarization, dissociation assay; conditions: no Hsc70: stays bound, Hsc70 + DnaJB1 + ATP dissociates it; 25 mM Hepes pH 7.6, 150 mM KCl, 5 mM MgCl2, 10% glycerol, 1 mM DTT, 25 C; 5 nM DNA, 0.16-166.67 nM Hsf1 trimer (titration); 25 nM DNA, 0.3 uM trimer (SUMOylation on DNA); recombinant protein; residues 1-529; label: 5' Alexa488 on sense strand
[3] = molecular target: T1, Hsf1-K298R,S303E,S307E (REE) (human) (UniProt Q00613); assay: fluorescence polarization, dissociation assay; conditions: with or without SUMOylation machinery, no Hsc70: stays bound, Hsc70 + DnaJB1 + ATP dissociates it with similar kinetics; 25 mM Hepes pH 7.6, 150 mM KCl, 5 mM MgCl2, 10% glycerol, 1 mM DTT, 25 C; 5 nM DNA, 0.16-166.67 nM Hsf1 trimer (titration); 25 nM DNA, 0.3 uM trimer (SUMOylation on DNA); recombinant protein; residues 1-529; label: 5' Alexa488 on sense strand
T1 sequence (looked up): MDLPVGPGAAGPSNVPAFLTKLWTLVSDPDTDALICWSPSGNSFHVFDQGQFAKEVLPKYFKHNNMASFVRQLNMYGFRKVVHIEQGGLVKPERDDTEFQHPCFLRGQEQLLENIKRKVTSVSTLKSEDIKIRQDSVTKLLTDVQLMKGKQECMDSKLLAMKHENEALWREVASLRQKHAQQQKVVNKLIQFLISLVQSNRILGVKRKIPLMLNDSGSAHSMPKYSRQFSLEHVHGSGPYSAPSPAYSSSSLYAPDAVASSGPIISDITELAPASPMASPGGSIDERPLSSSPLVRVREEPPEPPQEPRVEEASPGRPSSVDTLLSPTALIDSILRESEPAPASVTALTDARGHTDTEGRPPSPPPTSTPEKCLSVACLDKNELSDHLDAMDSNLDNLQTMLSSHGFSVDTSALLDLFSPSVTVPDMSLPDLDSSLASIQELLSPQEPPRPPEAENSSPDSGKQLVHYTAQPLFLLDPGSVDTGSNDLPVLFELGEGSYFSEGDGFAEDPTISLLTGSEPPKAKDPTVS

Measured: binding result

CCCCTTCCCGAATATTCCCCC (double strand) [ds-Alexa488-HSEs (3xHSE)]
binds: [1] | [2] | [3]
